Test results taken from the supplement of paper PMC11006884.
Shown are results outside the selection of targets with a hit, which stands elsewhere. This is a noisy data set. This is a selection; strong and weak results do not stand in their true shares.

Compound: COC(=O)/C=C/c1ccccc1 [methyl cinnamate]
Test: log2 ratio of iodoacetamide-alkyne labeling of the cysteine site, DMSO over compound (competition); higher = stronger covalent engagement of the cysteine by the compound, active = 1 or more
Conditions: 500 µM; treatment time 1 h; system: HEK293T cell lysate
Procedure, shortened: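 Reporter intensities give each cysteine's log2 competition ratio as the mean of control channels over the mean of compound channels. The samples were HEK293T lysate (2 mg/mL) given vehicle or electrophile (500 µM, 1 h, ambient temperature), then iodoacetamide alkyne (1 h), followed by click coupling to sCIP-TMT reagents, pooling, trypsin digestion overnight at 37 °C, streptavidin enrichment, acid elution, Orbitrap Eclipse LC-MS/MS with FAIMS and FragPipe quantification. Duplicate channels and three replicates were run, and cysteines quantified in only one replicate were discarded.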

Target	log2 ratio of iodoacetamide-alkyne labeling
RNF2 C75 (UniProt Q99496)	inactive: -0.144
FNBP1 C130 (UniProt Q96RU3)	inactive: 0.264
VPS13A C582 (UniProt Q96RL7)	inactive: 0.387
SH3GL1 C277 (UniProt Q99961)	inactive: 0.21
CDC5L C96 (UniProt Q99459)	inactive: 0.0348
ELAC2 C51 (UniProt Q9BQ52)	inactive: -0.0525
ELAC2 C441 (UniProt Q9BQ52)	inactive: -0.102
ZFR C922 (UniProt Q96KR1)	inactive: 0.0846
PIK3R4 C759 (UniProt Q99570)	inactive: -0.235
PLEKHF1 C21 (UniProt Q96S99)	inactive: 0.0349
MACROD1 C199 (UniProt Q9BQ69)	inactive: 0.042
WDFY2 C290 (UniProt Q96P53)	inactive: -0.0588
NCAPG C202 (UniProt Q9BPX3)	inactive: 0.0262
RSF1 C404 (UniProt Q96T23)	inactive: 0.28
CCT7 C158 (UniProt Q99832)	inactive: 0.195
DNAJC7 C317 (UniProt Q99615)	inactive: -0.0858
RUFY1 C603 (UniProt Q96T51)	inactive: -0.0926
MARK4 C459 (UniProt Q96L34)	inactive: 0.117
EHMT2 C617 (UniProt Q96KQ7)	inactive: 0.403
SMG1 C3401 (UniProt Q96Q15)	inactive: -0.254
OSBPL9 C619 (UniProt Q96SU4)	inactive: 0.55
UniProt Q96JM3_C787	inactive: -0.00144
CPNE1 C30 (UniProt Q99829)	inactive: -0.221

Target	log2 ratio of iodoacetamide-alkyne labeling
CCT7 C450 (UniProt Q99832)	inactive: 0.19
NCAPG C751 (UniProt Q9BPX3)	inactive: 0.601
MYBBP1A C1096 (UniProt Q9BQG0)	inactive: 0.266
ZNF512 C540 (UniProt Q96ME7)	inactive: 0.428
RBM15 C926 (UniProt Q96T37)	inactive: 0.568
UniProt Q96NC0_C85	inactive: -0.132
NUDCD1 C376 (UniProt Q96RS6)	inactive: 0.327
SRPK1 C455 (UniProt Q96SB4)	inactive: 0.152
CLCC1 C550 (UniProt Q96S66)	inactive: 0.189
ZNF48 C288 (UniProt Q96MX3)	inactive: 0.266
WRNIP1 C39 (UniProt Q96S55)	inactive: 0.0719
RNF5 C27 (UniProt Q99942)	inactive: 0.0227
SPEN C1066 (UniProt Q96T58)	inactive: 0.059
ELAC2 C609 (UniProt Q9BQ52)	inactive: 0.128
PNKP C516 (UniProt Q96T60)	inactive: 0.18
POP1 C705 (UniProt Q99575)	inactive: 0.0494
FAM118B C93 (UniProt Q9BPY3)	inactive: -0.109
SH3GL1 C96 (UniProt Q99961)	inactive: 0.232
EP400 C694 (UniProt Q96L91)	inactive: 0.359
PSMB7 C87 (UniProt Q99436)	inactive: 0.0421
UniProt Q99590_C478	inactive: 0.38
EHMT2 C866 (UniProt Q96KQ7)	inactive: 0.101
UniProt Q9BPX6_C83	inactive: 0.437

Reformatted: results already given
Target | log2 ratio of iodoacetamide-alkyne labeling
ZNF512 C540 (UniProt Q96ME7) | inactive: 0.428
RBM15 C926 (UniProt Q96T37) | inactive: 0.568
UniProt Q96NC0_C85 | inactive: -0.132

The list goes on:

Target	log2 ratio of iodoacetamide-alkyne labeling
UniProt Q96NC0_C87	inactive: -0.174
NGLY1 C197 (UniProt Q96IV0)	inactive: 0.0285
FUBP3 C366 (UniProt Q96I24)	inactive: 0.106
UniProt Q9BQ61_C165	inactive: 0.55
INTS4 C109 (UniProt Q96HW7)	inactive: 0.127
RSF1 C1018 (UniProt Q96T23)	inactive: -0.00941
DDX50 C242 (UniProt Q9BQ39)	inactive: -0.00275
TCF25 C216 (UniProt Q9BQ70)	inactive: 0.282
RBM17 C302 (UniProt Q96I25)	inactive: 0.0897
PSMD1 C633 (UniProt Q99460)	inactive: -0.293
RNF5 C30 (UniProt Q99942)	inactive: 0.0227
PPP1R10 C48 (UniProt Q96QC0)	inactive: 0.175
MIPEP C116 (UniProt Q99797)	inactive: -0.199
RPRD1A C220 (UniProt Q96P16)	inactive: 0.239
SPAG5 C1035 (UniProt Q96R06)	inactive: 0.213
SCYL1 C210 (UniProt Q96KG9)	inactive: -0.186
CRBN C78 (UniProt Q96SW2)	inactive: 0.0986
DNAJC2 C394 (UniProt Q99543)	inactive: -0.183
CCDC138 C28 (UniProt Q96M89)	inactive: 0.27
POP1 C408 (UniProt Q99575)	inactive: -0.0294
NCAPG C966 (UniProt Q9BPX3)	inactive: 0.146
TTC1 C28 (UniProt Q99614)	inactive: 0.271
UHRF1 C759 (UniProt Q96T88)	inactive: 0.0265

Target	log2 ratio of iodoacetamide-alkyne labeling
CCT7 C29 (UniProt Q99832)	inactive: 0.297
UniProt Q9BQ75_C55	inactive: 0.326
UniProt Q99590_C450	inactive: 0.165
MTR C1153 (UniProt Q99707)	inactive: -0.042
ZFR C5 (UniProt Q96KR1)	inactive: 0.0688
NCAPG C177 (UniProt Q9BPX3)	inactive: 0.135
UniProt Q99683_C928	inactive: 0.297
TTC1 C8 (UniProt Q99614)	inactive: -0.0165
MYBBP1A C305 (UniProt Q9BQG0)	inactive: -0.0479
SECISBP2 C719 (UniProt Q96T21)	inactive: -0.138
PSMD1 C898 (UniProt Q99460)	inactive: 0.159
RUFY1 C351 (UniProt Q96T51)	inactive: 0.476
UHRF1 C410 (UniProt Q96T88)	inactive: 0.0635
SPAG5 C822 (UniProt Q96R06)	inactive: -0.011
AHCYL2 C353 (UniProt Q96HN2)	inactive: 0.302
OSBPL9 C720 (UniProt Q96SU4)	inactive: 0.0182
PUS7 C443 (UniProt Q96PZ0)	inactive: 0.104
CDK5RAP2 C249 (UniProt Q96SN8)	inactive: 0.406
NCAPG C843 (UniProt Q9BPX3)	inactive: 0.0619
ATXN2 C852 (UniProt Q99700)	inactive: 0.207
YME1L1 C433 (UniProt Q96TA2)	inactive: -0.132
CPNE1 C4 (UniProt Q99829)	inactive: -0.11
TUBA1C C295 (UniProt Q9BQE3)	inactive: 0.153

Target	log2 ratio of iodoacetamide-alkyne labeling
MYBBP1A C1031 (UniProt Q9BQG0)	inactive: 0.18
DDX50 C603 (UniProt Q9BQ39)	inactive: -0.121
SCLT1 C38 (UniProt Q96NL6)	inactive: -0.437
USP28 C203 (UniProt Q96RU2)	inactive: -0.0142
UniProt Q9BPU6_C22	inactive: -0.0275
KIF2C C287 (UniProt Q99661)	inactive: 0.197
FUBP3 C460 (UniProt Q96I24)	inactive: 0.228
PAWR C173 (UniProt Q96IZ0)	inactive: 0.251
ZFR C899 (UniProt Q96KR1)	inactive: 0.282
POP1 C777 (UniProt Q99575)	inactive: 0.442
SCYL1 C241 (UniProt Q96KG9)	inactive: 0.012
HSD17B10 C214 (UniProt Q99714)	inactive: 0.282
FUBP3 C125 (UniProt Q96I24)	inactive: 0.0768
TMEM209 C367 (UniProt Q96SK2)	inactive: -0.184
MACROD1 C116 (UniProt Q9BQ69)	inactive: 0.131
MYBBP1A C678 (UniProt Q9BQG0)	inactive: 0.058
OSBPL9 C230 (UniProt Q96SU4)	inactive: 0.743
POP1 C666 (UniProt Q99575)	inactive: -0.0374
TUBA1C C376 (UniProt Q9BQE3)	inactive: 0.211
